# From patent US20220074941A1, “HSP90 COMBINATION THERAPY” (Sloan-Kettering Institute for Cancer Research, priority 2011, published 2022)
# Assays:
# [1] = tested on: Hsp90 complexes in K562 cell extract; assay: Nano-LC-MS/MS of PU-beads pull-downs; type: binding; settings: protein identified in PU-beads pull-down of K562 extract, QSTAR-Elite QTof MS
# Outline: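 Lysates pre-cleared overnight at 4 °C with control beads, then pulled down with PU-beads or control beads; eluted proteins (2% SDS boil) gel-separated and analysed by nano LC-MS/MS on a QTof. Mascot identification (p<0.05), spectral counts and sequence coverage evaluated in Scaffold.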
# [2] = tested on: Hsp90 complexes in Mia-PaCa-2 cell extract; assay: Nano-LC-MS/MS of PU-beads pull-downs; type: binding, human; settings: protein identified in PU-beads pull-down of Mia-Paca 2 extract; QSTAR-Elite QTof MS
# Outline: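 Lysates pre-cleared overnight at 4 °C with control beads underwent PU-bead pull-down; bound proteins were SDS-eluted, gel-separated, digested and analyzed by nano-LC-MS/MS on a QTof. Identifications used significance p<0.05, 0.4 Da tolerances and one missed cleavage; unique peptide (spectral) counts and sequence coverage were reported.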
Molecule,"Number of Assigned Spectra, K562 Prep 1 [1]","Number of Assigned Spectra, K562 Prep 2 [1]","Number of Assigned Spectra, Mia-Paca 2 [2]"
"ARHGEF2 (protein, UniProt Q92974 1-986, looked up) Rho guanine nucleotide …: MSRIESLTRARIDRSRELASKTREKEKMKEAKDARYTNGHLFTTISVSGMTMCYACNKSITAKEALICPTCNVTIHNRCKDTLANCTKVKQKQQKAALLKNNTALQSVSLRSKTTIRERPSSAIYPSDSFRQSLLGSRRGRSSLSLAKSVSTTNIAGHFNDESPLGLRRILSQSTDSLNMRNRTLSVESLIDEAEVIYSELMSDFEMDEKDFAADSWSLAVDSSFLQQHKKEVMKQQDVIYELIQTELHHVRTLKIMTRLFRTGMLEELHLEPGVVQGLFPCVDELSDIHTRFLSQLLERRRQALCPGSTRNFVIHRLGDLLISQFSGPSAEQMCKTYSEFCSRHSKALKLYKELYARDKRFQQFIRKVTRPAVLKRHGVQECILLVTQRITKYPLLISRILQHSHGIEEERQDLTTALGLVKELLSNVDEGIYQLEKGARLQEIYNRMDPRAQTPVPGKGPFGREELLRRKLIHDGCLLWKTATGRFKDVLVLLMTDVLVFLQEKDQKYIFPTLDKPSVVSLQNLIVRDIANQEKGMFLISAAPPEMYEVHTASRDDRSTWIRVIQQSVRTCPSREDFPLIETEDEAYLRRIKMELQQKDRALVELLREKVGLFAEMTHFQAEEDGGSGMALPTLPRGLFRSESLESPRGERLLQDAIREVEGLKDLLVGPGVELLLTPREPALPLEPDSGGNTSPGVTANGEARTFNGSIELCRADSDSSQRDRNGNQLRSPQEEALQRLVNLYGLLHGLQAAVAQQDTLMEARFPEGPERREKLCRANSRDGEAGRAGAAPVAPEKQATELALLQRQHALLQEELRRCRRLGEERATEAGSLEARLRESEQARALLEREAEEARRQLAALGQTEPLPAEAPWARRPVDPRRRSLPAGDALYLSFNPPQPSRGTDRLDLPVTTRSVHRNFEDRERQELGSPEERLQDSSDPDTGSEEEGSSRLSPPHSPRDFTRMQDIPEETESRDGEAVASES",14,7,2
"ARHGEF1 (protein, UniProt Q92888 1-912, looked up) Rho guanine nucleotide …: MEDFARGAASPGPSRPGLVPVSIIGAEDEDFENELETNSEEQNSQFQSLEQVKRRPAHLMALLQHVALQFEPGPLLCCLHADMLGSLGPKEAKKAFLDFYHSFLEKTAVLRVPVPPNVAFELDRTRADLISEDVQRRFVQEVVQSQQVAVGRQLEDFRSKRLMGMTPWEQELAQLEAWVGRDRASYEARERHVAERLLMHLEEMQHTISTDEEKSAAVVNAIGLYMRHLGVRTKSGDKKSGRNFFRKKVMGNRRSDEPAKTKKGLSSILDAARWNRGEPQVPDFRHLKAEVDAEKPGATDRKGGVGMPSRDRNIGAPGQDTPGVSLHPLSLDSPDREPGADAPLELGDSSPQGPMSLESLAPPESTDEGAETESPEPGDEGEPGRSGLELEPEEPPGWRELVPPDTLHSLPKSQVKRQEVISELLVTEAAHVRMLRVLHDLFFQPMAECLFFPLEELQNIFPSLDELIEVHSLFLDRLMKRRQESGYLIEEIGDVLLARFDGAEGSWFQKISSRFCSRQSFALEQLKAKQRKDPRFCAFVQEAESRPRCRRLQLKDMIPTEMQRLTKYPLLLQSIGQNTEEPTEREKVELAAECCREILHHVNQAVRDMEDLLRLKDYQRRLDLSHLRQSSDPMLSEFKNLDITKKKLVHEGPLTWRVTKDKAVEVHVLLLDDLLLLLQRQDERLLLKSHSRTLTPTPDGKTMLRPVLRLTSAMTREVATDHKAFYVLFTWDQEAQIYELVAQTVSERKNWCALITETAGSLKVPAPASRPKPRPSPSSTREPLLSSSENGNGGRETSPADARTERILSDLLPFCRPGPEGQLAATALRKVLSLKQLLFPAEEDNGAGPPRDGDGVPGGGPLSPARTQEIQENLLSLEETMKQLEELEEEFCRLRPLLSQLGGNSVPQPGCT",4,3,0
"ACAP2 (protein, UniProt Q15057 1-778, looked up) Arf-GAP with coiled-coil, ANK …: MKMTVDFEECLKDSPRFRAALEEVEGDVAELELKLDKLVKLCIAMIDTGKAFCVANKQFMNGIRDLAQYSSNDAVVETSLTKFSDSLQEMINFHTILFDQTQRSIKAQLQNFVKEDLRKFKDAKKQFEKVSEEKENALVKNAQVQRNKQHEVEEATNILTATRKCFRHIALDYVLQINVLQSKRRSEILKSMLSFMYAHLAFFHQGYDLFSELGPYMKDLGAQLDRLVVDAAKEKREMEQKHSTIQQKDFSSDDSKLEYNVDAANGIVMEGYLFKRASNAFKTWNRRWFSIQNNQLVYQKKFKDNPTVVVEDLRLCTVKHCEDIERRFCFEVVSPTKSCMLQADSEKLRQAWIKAVQTSIATAYREKGDESEKLDKKSSPSTGSLDSGNESKEKLLKGESALQRVQCIPGNASCCDCGLADPRWASINLGITLCIECSGIHRSLGVHFSKVRSLTLDTWEPELLKLMCELGNDVINRVYEANVEKMGIKKPQPGQRQEKEAYIRAKYVERKFVDKYSISLSPPEQQKKFVSKSSEEKRLSISKFGPGDQVRASAQSSVRSNDSGIQQSSDDGRESLPSTVSANSLYEPEGERQDSSMFLDSKHLNPGLQLYRASYEKNLPKMAEALAHGADVNWANSEENKATPLIQAVLGGSLVTCEFLLQNGANVNQRDVQGRGPLHHATVLGHTGQVCLFLKRGANQHATDEEGKDPLSIAVEAANADIVTLLRLARMNEEMRESEGLYGQPGDETYQDIFRDFSQMASNNPEKLNRFQQDSQKF",3,2,1
"RANGAP1 (protein, UniProt P46060 2-587, looked up) Ran GTPase-activating protein …: ASEDIAKLAETLAKTQVAGGQLSFKGKSLKLNTAEDAKDVIKEIEDFDSLEALRLEGNTVGVEAARVIAKALEKKSELKRCHWSDMFTGRLRTEIPPALISLGEGLITAGAQLVELDLSDNAFGPDGVQGFEALLKSSACFTLQELKLNNCGMGIGGGKILAAALTECHRKSSAQGKPLALKVFVAGRNRLENDGATALAEAFRVIGTLEEVHMPQNGINHPGITALAQAFAVNPLLRVINLNDNTFTEKGAVAMAETLKTLRQVEVINFGDCLVRSKGAVAIADAIRGGLPKLKELNLSFCEIKRDAALAVAEAMADKAELEKLDLNGNTLGEEGCEQLQEVLEGFNMAKVLASLSDDEDEEEEEEGEEEEEEAEEEEEEDEEEEEEEEEEEEEEPQQRGQGEKSATPSRKILDPNTGEPAPVLSSPPPADVSTFLAFPSPEKLLRLGPKSSVLIAQQTDTSDPEKVVSAFLKVSSVFKDEATVRMAVQDAVDALMQKAFNSSSFNSNTFLTRLLVHMGLLKSEDKVKAIANLYGPLMALNHMVQQDYFPKALAPLLLAFVTKPNSALESCSFARHSLLQTLYKV",13,4,1
"GIT1 (protein, UniProt Q9Y2X7 1-761, looked up) ARF GTPase-activating protein …: MSRKGPRAEVCADCSAPDPGWASISRGVLVCDECCSVHRSLGRHISIVKHLRHSAWPPTLLQMVHTLASNGANSIWEHSLLDPAQVQSGRRKANPQDKVHPIKSEFIRAKYQMLAFVHKLPCRDDDGVTAKDLSKQLHSSVRTGNLETCLRLLSLGAQANFFHPEKGTTPLHVAAKAGQTLQAELLVVYGADPGSPDVNGRTPIDYARQAGHHELAERLVECQYELTDRLAFYLCGRKPDHKNGHYIIPQMADSLDLSELAKAAKKKLQALSNRLFEELAMDVYDEVDRRENDAVWLATQNHSTLVTERSAVPFLPVNPEYSATRNQGRQKLARFNAREFATLIIDILSEAKRRQQGKSLSSPTDNLELSLRSQSDLDDQHDYDSVASDEDTDQEPLRSTGATRSNRARSMDSSDLSDGAVTLQEYLELKKALATSEAKVQQLMKVNSSLSDELRRLQREIHKLQAENLQLRQPPGPVPTPPLPSERAEHTPMAPGGSTHRRDRQAFSMYEPGSALKPFGGPPGDELTTRLQPFHSTELEDDAIYSVHVPAGLYRIRKGVSASAVPFTPSSPLLSCSQEGSRHTSKLSRHGSGADSDYENTQSGDPLLGLEGKRFLELGKEEDFHPELESLDGDLDPGLPSTEDVILKTEQVTKNIQELLRAAQEFKHDSFVPCSEKIHLAVTEMASLFPKRPALEPVRSSLRLLNASAYRLQSECRKTVPPEPGAPVDFQLLTQQVIQCAYDIAKAAKQLVTITTREKKQ",2,0,0
